Reference: patent US20220074941A1, “HSP90 COMBINATION THERAPY” (Sloan-Kettering Institute for Cancer Research, priority 2011, published 2022)

How the values were obtained:
[1] = tested on: Hsp90 complexes in K562 cell extract; assay: Nano-LC-MS/MS of PU-beads pull-downs; assay type: binding; settings: protein identified in PU-beads pull-down of K562 extract, QSTAR-Elite QTof MS
Outline: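 Lysates pre-cleared overnight at 4 °C with control beads, then pulled down with PU-beads or control beads; eluted proteins (2% SDS boil) gel-separated and analysed by nano LC-MS/MS on a QTof. Mascot identification (p<0.05), spectral counts and sequence coverage evaluated in Scaffold.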

[2] = tested on: Hsp90 complexes in Mia-PaCa-2 cell extract; assay: Nano-LC-MS/MS of PU-beads pull-downs; assay type: binding, human; settings: protein identified in PU-beads pull-down of Mia-Paca 2 extract; QSTAR-Elite QTof MS
Outline: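 Lysates pre-cleared overnight at 4 °C with control beads underwent PU-bead pull-down; bound proteins were SDS-eluted, gel-separated, digested and analyzed by nano-LC-MS/MS on a QTof. Identifications used significance p<0.05, 0.4 Da tolerances and one missed cleavage; unique peptide (spectral) counts and sequence coverage were reported.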

Molecule	Number of Assigned Spectra, K562 Prep 1 [1]	Number of Assigned Spectra, K562 Prep 2 [1]	Number of Assigned Spectra, Mia-Paca 2 [2]
STAT5A (protein) MAGWIQAQQLQGDALRQMQVLYGQHFPIEVRHYLAQWIESQPWDAIDLDNPQDRAQATQLLEGLVQELQKKAEHQVGEDGFLLKIKLGHYATQLQKTYDRCPLELVRCIRHILYNEQRLVREANNCSSPAGILVDAMSQKHLQINQTFEELRLVTQDTENELKKLQQTQEYFIIQYQESLRIQAQFAQLAQLSPQERLSRETALQQKQVSLEAWLQREAQTLQQYRVELAEKHQKTLQLLRKQQTIILDDELIQWKRRQQLAGNGGPPEGSLDVLQSWCEKLAEIIWQNRQQIRRAEHLCQQLPIPGPVEEMLAEVNATITDIISALVTSTFIIEKQPPQVLKTQTKFAATVRLLVGGKLNVHMNPPQVKATIISEQQAKSLLKNENTRNECSGEILNNCCVMEYHQATGTLSAHFRNMSLKRIKRADRRGAESVTEEKFTVLFESQFSVGSNELVFQVKTLSLPVVVIVHGSQDHNATATVLWDNAFAEPGRVPFAVPDKVLWPQLCEALNMKFKAEVQSNRGLTKENLVFLAQKLFNNSSSHLEDYSGLSVSWSQFNRENLPGWNYTFWQWFDGVMEVLKKHHKPHWNDGAILGFVNKQQAHDLLINKPDGTFLLRFSDSEIGGITIAWKFDSPERNLWNLKPFTTRDFSIRSLADRLGDLSYLIYVFPDRPKDEVFSKYYTPVLAKAVDGYVKPQIKQVVPEFVNASADAGGSSATYMDQAPSPAVCPQAPYNMYPQNPDHVLDQDGEFDLDETMDVARHVEELLRRPMDSLDSRLSPPAGLFTSARGSLS	48	25	0
TELO2 (protein, UniProt Q9Y4R8 1-837, looked up) Telomere length regulation …: MEPAPSEVRLAVREAIHALSSSEDGGHIFCTLESLKRYLGEMEPPALPREKEEFASAHFSPVLRCLASRLSPAWLELLPHGRLEELWASFFLEGPADQAFLVLMETIEGAAGPSFRLMKMARLLARFLREGRLAVLMEAQCRQQTQPGFILLRETLLGKVVALPDHLGNRLQQENLAEFFPQNYFRLLGEEVVRVLQAVVDSLQGGLDSSVSFVSQVLGKACVHGRQQEILGVLVPRLAALTQGSYLHQRVCWRLVEQVPDRAMEAVLTGLVEAALGPEVLSRLLGNLVVKNKKAQFVMTQKLLFLQSRLTTPMLQSLLGHLAMDSQRRPLLLQVLKELLETWGSSSAIRHTPLPQQRHVSKAVLICLAQLGEPELRDSRDELLASMMAGVKCRLDSSLPPVRRLGMIVAEVVSARIHPEGPPLKFQYEEDELSLELLALASPQPAGDGASEAGTSLVPATAEPPAETPAEIVDGGVPQAQLAGSDSDLDSDDEFVPYDMSGDRELKSSKAPAYVRDCVEALTTSEDIERWEAALRALEGLVYRSPTATREVSVELAKVLLHLEEKTCVVGFAGLRQRALVAVTVTDPAPVADYLTSQFYALNYSLRQRMDILDVLTLAAQELSRPGCLGRTPQPGSPSPNTPCLPEAAVSQPGSAVASDWRVVVEERIRSKTQRLSKGGPRQGPAGSPSRFNSVAGHFFFPLLQRFDRPLVTFDLLGEDQLVLGRLAHTLGALMCLAVNTTVAVAMGKALLEFVWALRFHIDAYVRQGLLSAVSSVLLSLPAARLLEDLMDELLEARSWLADVAEKDPDEDCRTLALRALLLLQRLKNRLLPPASP	11	1	1
PDCD4 (protein, UniProt Q53EL6 1-469, looked up) Programmed cell death protein …: MDVENEQILNVNPADPDNLSDSLFSGDEENAGTEEIKNEINGNWISASSINEARINAKAKRRLRKNSSRDSGRGDSVSDSGSDALRSGLTVPTSPKGRLLDRRSRSGKGRGLPKKGGAGGKGVWGTPGQVYDVEEVDVKDPNYDDDQENCVYETVVLPLDERAFEKTLTPIIQEYFEHGDTNEVAEMLRDLNLGEMKSGVPVLAVSLALEGKASHREMTSKLLSDLCGTVMSTTDVEKSFDKLLKDLPELALDTPRAPQLVGQFIARAVGDGILCNTYIDSYKGTVDCVQARAALDKATVLLSMSKGGKRKDSVWGSGGGQQSVNHLVKEIDMLLKEYLLSGDISEAEHCLKELEVPHFHHELVYEAIIMVLESTGESTFKMILDLLKSLWKSSTITVDQMKRGYERIYNEIPDINLDVPHSYSVLERFVEECFQAGIISKQLRDLCPSRGRKRFVSEGDGGRLKPESY	2	5	3
STAT5B (protein) MAGWIQAQQLQGDALRQMQVLYGQHFPIEVRHYLAQWIESQPWDAIDLDNPQDRAQATQLLEGLVQELQKKAEHQVGEDGFLLKIKLGHYATQLQKTYDRCPLELVRCIRHILYNEQRLVREANNCSSPAGILVDAMSQKHLQINQTFEELRLVTQDTENELKKLQQTQEYFIIQYQESLRIQAQFAQLAQLSPQERLSRETALQQKQVSLEAWLQREAQTLQQYRVELAEKHQKTLQLLRKQQTIILDDELIQWKRRQQLAGNGGPPEGSLDVLQSWCEKLAEIIWQNRQQIRRAEHLCQQLPIPGPVEEMLAEVNATITDIISALVTSTFIIEKQPPQVLKTQTKFAATVRLLVGGKLNVHMNPPQVKATIISEQQAKSLLKNENTRNECSGEILNNCCVMEYHQATGTLSAHFRNMSLKRIKRADRRGAESVTEEKFTVLFESQFSVGSNELVFQVKTLSLPVVVIVHGSQDHNATATVLWDNAFAEPGRVPFAVPDKVLWPQLCEALNMKFKAEVQSNRGLTKENLVFLAQKLFNNSSSHLEDYSGLSVSWSQFNRENLPGWNYTFWQWFDGVMEVLKKHHKPHWNDGAILGFVNKQQAHDLLINKPDGTFLLRFSDSEIGGITIAWKFDSPERNLWNLKPFTTRDFSIRSLADRLGDLSYLIYVFPDRPKDEVFSKYYTPVLAKAVDGYVKPQIKQVVPEFVNASADAGGSSATYMDQAPSPAVCPQAPYNMYPQNPDHVLDQDGEFDLDETMDVARHVEELLRRPMDSLDSRLSPPAGLFTSARGSLS	10	5	0
VAV1 (protein) MELWRQCTHWLIQCRVLPPSHRVTWDGAQVCELAQALRDGVLLCQLLNNLLPHAINLREVNLRPQMSQFLCLKNIRTFLSTCCEKFGLKRSELFEAFDLFDVQDFGKVIYTLSALSWTPIAQNRGIMPFPTEEESVGDEDIYSGLSDQIDDTVEEDEDLYDCVENEEAEGDEIYEDLMRSEPVSMPPKMTEYDKRCCCLREIQQTEEKYTDTLGSIQQHFLKPLQRFLKPQDIEIIFINIEDLLRVHTHFLKEMKEALGTPGAANLYQVFIKYKERFLVYGRYCSQVESASKHLDRVAAAREDVQMKLEECSQRANNGRFTLRDLLMVPMQRVLKYHLLLQELVKHTQEAMEKENLRLALDAMRDLAQCVNEVKRDNETLRQITNFQLSIENLDQSLAHYGRPKIDGELKITSVERRSKMDRYAFLLDKALLICKRRGDSYDLKDFVNLHSFQVRDDSSGDRDNKKWSHMFLLIEDQGAQGYELFFKTRELKKKWMEQFEMAISNIYPENATANGHDFQMFSFEETTSCKACQMLLRGTFYQGYRCHRCRASAHKECLGRVPPCGRHGQDFPGTMKKDKLHRRAQDKKRNELGLPKMEVFQEYYGLPPPPGAIGPFLRLNPGDIVELTKAEAEQNWWEGRNTSTNEIGWFPCNRVKPYVHGPPQDLSVHLWYAGPMERAGAESILANRSDGTFLVRQRVKDAAEFAISIKYNVEVKHIKIMTAEGLYRITEKKAFRGLTELVEFYQQNSLKDCFKSLDTTLQFPFKEPEKRTISRPAVGSTKYFGTAKARYDFCARDRSELSLKEGDIIKILNKKGQQGWWRGEIYGRVGWFPANYVEEDYSEYC	3	1	0
BTK (protein) AAVILESIFLKRSQQKKKTSPLNFKKRLFLLTVHKLSYYEYDFERGRRGSKKGSIDVEKITCVETVVPEKNPPPERQIPRRGEESSEMEQISIIERFPYPFQVVYDEGPLYVFSPTEELRKRWIHQLKNVIRYNSDLVQKYHPCFWIDGQYLCCSQTAKNAMGCQILENRNGSLKPGSSHRKTKKPLPPTPEEDQILKKPLPPEPAAAPVSTSELKKVVALYDYMPMNANDLQLRKGDEYFILEESNLPWWRARDKNGQEGYIPSNYVTEAEDSIEMYEWYSKHMTRSQAEQLLKQEGKEGGFIVRDSSKAGKYTVSVFAKSTGDPQGVIRHYVVCSTPQSQYYLAEKHLFSTIPELINYHQHNSAGLISRLKYPVSQQNKNAPSTAGLGYGSWEIDPKDLTFLKELGTGQFGVVKYGKWRGQYDVAIKMIKEGSMSEDEFIEEAKVMMNLSHEKLVQLYGVCTKQRPIFIITEYMANGCLLNYLREMRHRFQTQQLLEMCKDVCEAMEYLESKQFLHRDLAARNCLVNDQGVVKVSDFGLSRYVLDDEYTSSVGSKFPVRWSPPEVLMYSKFSSKSDIWAFGVLMWEIYSLGKMPYERFTNSETAEHIAQGLRLYRPHLASEKVYTIMYSCWHEKADERPTFKILLSNILDVMDEES	11	8	0
